Legend:
[1] = general procedure: solution-phase peptide synthesis; HATU, HOBT, DIEA
[2] = Cysteine digestion, in vitro payload release

[(2S)-2-[2-(2-aminoacetamido)acetamido]-3-phenylpropanamido]acetic acid hydrochloride
step yield ([1]; late stage modification step, hydrochloride): 93%

N-{[({[(1S)-1-({[({3-[5-({[(3-chloro-4-{2-[2-(methylamino)ethoxy]ethyl}phenyl)carbamoyl]amino}methyl)-1-oxo-3H-isoindol-2-yl]-2,6-dioxopiperidin-1-yl}methyl)carbamoyl]methyl}carbamoyl)-2-phenylethyl]carbamoyl}methyl)carbamoyl]methyl}
step yield ([1]; late stage modification step): 17%

CNCCOCCc1ccc(NC(=O)NCc2ccc3c(c2)CN(C2CCC(=O)N(CN(C)S(=O)(=O)c4ccc(C(=O)NCCN5C(=O)C=CC5=O)cc4[N+](=O)[O-])C2=O)C3=O)cc1Cl.O=C(O)C(F)(F)F (stereo not shown) [Compound (XIX), 4-[({3-[5-({[(3-chloro-4-{2-[2-(methylamino)ethoxy]ethyl}phenyl)carbamoyl]amino}methyl)-1-oxo-3H-isoindol-2-yl]-2,6-dioxopiperidin-1-yl}methyl)(methyl)sulfamoyl]-N-[2-(2,5-dioxopyrrol-1-yl)ethyl]-3-nitrobenzamide; trifluoroacetic acid]
% Payload Released ([2]; 1 mM compound, 10 molar equivalents L-cysteine, PBS pH 7.4 + 20% DMA, 37° C., 24 hours): sole product
consumption of parent compound on cysteine treatment (HPLC) ([2]; 10 molar equivalents L-cysteine, 37° C., 24 hours): completely consumed
yield of desired payload released by cysteine (in words) ([2]; cysteine treatment): excellent yield

[(2S)-2-(2-[2-[(tert-butoxycarbonyl)amino]acetamido]acetamido)-3-phenylpropanamido]acetic acid
step yield ([1]; coupling step): 15%

[(2S)-2-(2-[2-[6-(2,5-dioxopyrrol-1-yl)hexanamido]acetamido]acetamido)-3-phenylpropanamido]acetic acid
step yield ([1]; late stage modification step): 68%
